The text below walks through data of PMC6331412, “Protein Disulfide Isomerase Modulates the Activation of Thyroid Hormone Receptors” (Frontiers in Endocrinology, 2018).

Assay [1] concerns the target T1, hTRβΔAB (amino acids 102–461) labelled with FITC (human) (UniProt P10828).
T1 sequence (chain, labelled with fluorescein isothiocyanate (FITC), site not stated): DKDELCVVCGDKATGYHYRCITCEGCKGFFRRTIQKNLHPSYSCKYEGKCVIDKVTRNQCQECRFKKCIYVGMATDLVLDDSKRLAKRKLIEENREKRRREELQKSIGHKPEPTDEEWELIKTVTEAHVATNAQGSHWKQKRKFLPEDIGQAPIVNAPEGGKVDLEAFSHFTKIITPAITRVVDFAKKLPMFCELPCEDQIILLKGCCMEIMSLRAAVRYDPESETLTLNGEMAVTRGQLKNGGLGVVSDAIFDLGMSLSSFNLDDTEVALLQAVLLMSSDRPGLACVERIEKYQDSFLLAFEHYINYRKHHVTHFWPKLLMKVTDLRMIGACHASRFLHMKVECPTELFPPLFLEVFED
Briefly: condition: only PDIA1 pre-incubated with 0.5 mM H2O2 (Kd >>102 ± 264 μM); fluorescence polarisation; oxidised PDIA1 (pre-incubated with 0.5 mM H2O2 for 30 min) titrated from 0.012 to 25 μM into 50 nM TR-FITC; 20 mM sodium phosphate pH 7.4, 150 mM NaCl, 5 mM MgCl2, no DTT in the buffer; with and without T3 by the methods, not given for the values; both purified. (In general: Fluorescence polarisation rises when a labelled molecule tumbles more slowly, as on binding a larger partner.)

The target in assay [2] is T2, hTRβΔAB (amino acids 102–461), recombinant (human) (UniProt P10828).
T2 sequence: T1 sequence (chain, labelled with fluorescein isothiocyanate (FITC), site not stated)
Briefly: SEC; analytical gel filtration, Superdex 200 HR 10/300, buffer A or B with 150 mM NaCl and 2 mM DTT, 0.5 mL/min; hydrodynamic radii from calibration standards; proteins alone and mixed; both purified.

The target of assay [3] is T2, hTRβΔAB (amino acids 102–461), recombinant (human). In words: dynamic light scattering; ZetaSizer NanoZS90, ~1 mg/mL, 15°C; proteins alone and in complex; both purified.

No constants are given. Whether binding was seen depends on the method and setting. For part of these data: Binding can be weak; no strength is given.

In the case of “hPDIA1 full length, recombinant (human) (enzyme)”, the binding result in assay [1] is on record as “no binding”; in assay [2], “binds”; in assay [3], “binds”.
